Results deposited as PubChem BioAssay AID1508597 (Cure First, 2020).
This is a random part of the about 2,100 reagents, in one setting of the screen. 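Calls flag viability under 80% in either arm, not effects specific to rucaparib; the reference for percent is not stated.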 Some reagents were tested in more than one well and are listed for each. No sequences are given here. Not stated in the record: the 100% reference.

Purpose: 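Survival screen with siRNA in ovarian cancer cells derived from patients, with or without rucaparib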 (primary screen)
Cell system: human ovarian carcinoma lines grown from tumours: OCI-P5x (papillary serous) and OCI-C5x (clear cell)
Reagent: siRNA pool against human genes, 1.25 pmol siRNA per well
Timing: 72 h or 96 h, depending on the cell culture
Treatment: rucaparib 20 µM (about IC30) or vehicle, present until read-out
Rucaparib or vehicle: Rucaparib
Cell line: OCI-P5x (serous)
Measurement: 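ATP luminescence measured at 72 or 96 h according to the culture, then normalised and expressed as percent viability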
Reading the numbers: viability, normalised: higher = more viable cells remaining
Rule for the call: 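a well counts as a hit if its normalised viability is under 80 percent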
Calls: active = viability under 80%; inactive = viability 80% or more

gene symbol,technical replicate,"viability, normalised (%)",Call
BCKDK (GeneID 10295),1,51.5,active
BCKDK (GeneID 10295),2,65.5,active
BCKDK (GeneID 10295),3,75.4,active
DYRK4 (GeneID 8798),1,71,active
DYRK4 (GeneID 8798),2,66.2,active
DYRK4 (GeneID 8798),3,62.5,active
MAP2K5 (GeneID 5607),1,93.5,inactive
MAP2K5 (GeneID 5607),2,75.3,active
MAP2K5 (GeneID 5607),3,75.9,active
CLDN23 (GeneID 137075),1,64.3,active
CLDN23 (GeneID 137075),2,70.7,active
CLDN23 (GeneID 137075),3,62.6,active
FGR (GeneID 2268),1,75.5,active
FGR (GeneID 2268),2,64.7,active
FGR (GeneID 2268),3,64.4,active
PMVK (GeneID 10654),1,77.3,active
PMVK (GeneID 10654),2,88.3,inactive
PMVK (GeneID 10654),3,76.5,active
TRMT6 (GeneID 51605),1,95.8,inactive
TRMT6 (GeneID 51605),2,82.2,inactive
TRMT6 (GeneID 51605),3,80.7,inactive
EFNA5 (GeneID 1946),1,84.9,inactive
EFNA5 (GeneID 1946),2,50,active
EFNA5 (GeneID 1946),3,75.3,active
GRK6 (GeneID 2870),1,109,inactive
GRK6 (GeneID 2870),2,112,inactive
GRK6 (GeneID 2870),3,98.8,inactive
RAC1 (GeneID 5879),1,47.5,active
RAC1 (GeneID 5879),2,52.6,active
RAC1 (GeneID 5879),3,43.7,active
BNIP2 (GeneID 663),1,68.7,active
BNIP2 (GeneID 663),2,67.9,active
BNIP2 (GeneID 663),3,79.7,active
BMP2 (GeneID 650),1,48.4,active
BMP2 (GeneID 650),2,66.4,active
BMP2 (GeneID 650),3,58.4,active
TRIB3 (GeneID 57761),1,86,inactive
TRIB3 (GeneID 57761),2,58.7,active
TRIB3 (GeneID 57761),3,71.1,active

In a second layout: 6 of the entries above.
{"gene symbol": "CLDN23 (GeneID 137075)", "technical replicate": "3", "viability, normalised (%)": 62.6, "Call": "active"}
{"gene symbol": "FGR (GeneID 2268)", "technical replicate": "1", "viability, normalised (%)": 75.5, "Call": "active"}
{"gene symbol": "FGR (GeneID 2268)", "technical replicate": "2", "viability, normalised (%)": 64.7, "Call": "active"}
{"gene symbol": "FGR (GeneID 2268)", "technical replicate": "3", "viability, normalised (%)": 64.4, "Call": "active"}
{"gene symbol": "PMVK (GeneID 10654)", "technical replicate": "1", "viability, normalised (%)": 77.3, "Call": "active"}
{"gene symbol": "PMVK (GeneID 10654)", "technical replicate": "2", "viability, normalised (%)": 88.3, "Call": "inactive"}

The results go on:
gene symbol,technical replicate,"viability, normalised (%)",Call
RAPGEF4 (GeneID 11069),1,98.9,inactive
RAPGEF4 (GeneID 11069),2,87.4,inactive
RAPGEF4 (GeneID 11069),3,76.3,active
L3MBTL4 (GeneID 91133),1,60.1,active
L3MBTL4 (GeneID 91133),2,67.4,active
L3MBTL4 (GeneID 91133),3,62,active
DNMT3L (GeneID 29947),1,71,active
DNMT3L (GeneID 29947),2,58.1,active
DNMT3L (GeneID 29947),3,63.4,active
PHF21B (GeneID 112885),1,52.5,active
PHF21B (GeneID 112885),2,51.1,active
PHF21B (GeneID 112885),3,56.9,active
PRKCA (GeneID 5578),1,138,inactive
PRKCA (GeneID 5578),1,40.5,active
PRKCA (GeneID 5578),2,49.9,active
PRKCA (GeneID 5578),2,157,inactive
PRKCA (GeneID 5578),3,145,inactive
PRKCA (GeneID 5578),3,60.3,active
HDAC11 (GeneID 79885),1,69.2,active
HDAC11 (GeneID 79885),2,76,active
HDAC11 (GeneID 79885),3,68.5,active
USB1 (GeneID 79650),1,60.8,active
USB1 (GeneID 79650),2,69.3,active
USB1 (GeneID 79650),3,62.5,active
MYLK (GeneID 4638),1,91.3,inactive
MYLK (GeneID 4638),1,81.1,inactive
MYLK (GeneID 4638),2,90.1,inactive
MYLK (GeneID 4638),2,93.2,inactive
MYLK (GeneID 4638),3,101,inactive
MYLK (GeneID 4638),3,78.8,active
CCNE1 (GeneID 898),1,20.4,active
CCNE1 (GeneID 898),2,43,active
CCNE1 (GeneID 898),3,49.9,active
PANK3 (GeneID 79646),1,67.5,active
PANK3 (GeneID 79646),2,58.3,active
PANK3 (GeneID 79646),3,59.1,active
